{
  "source": "patent US20220288057A1",
  "about": "“CONJOINT THERAPY FOR TREATING SEIZURE DISORDERS” (XENON PHARMACEUTICALS INC., priority 2021, published 2022)",
  "test_system": "6 Hz psychomotor seizures in CF-1 mice",
  "assay": "Mouse 6 Hz psychomotor seizure assay (34 milliampere, 3 s)",
  "format": "in vivo",
  "conditions": "Compound A PO 1 h, Study 3A",
  "method": "It was evaluated whether the combination of both compounds is favorable or unfavorable for efficacy by dosing Compound A and Levetiracetam alone and in combination, each at a dose that produces sub-maximal efficacy on its own. […] Plasma and brain samples were analyzed to gain an understanding of how the combination of Compound A and Levetiracetam may affect pharmacokinetics and pharmacodynamics. […] 6 Hz Psychomotor Seizure Assay: […] The animal was then securely restrained and a pair of electrodes was applied to the eyes (Electro Convulsive Therapy Unit 57800, Ugo Basile). […] Data Processing and Analysis: Statistical data analysis was performed using GraphPad Prism (version 8.2.1). Dose-response data was analyzed using a Kruskal-Wallis test, followed by Dunn's multiple comparisons. […] Dose- and concentration-response curves were generated using the Hill Langmuir equation: […]",
  "data": [
    {"smiles": "Cc1cc(N2CCc3cc(F)ccc3C2)cc(C)c1NC(=O)CC(C)(C)C", "note": "[Compound A, N-[4-(6-fluoro-3,4-dihydro-1H-isoquinolin-2-yl)-2,6-dimethylphenyl]-3,3-dimethylbutanamide]", "values": [
      {"measurement": "Hill coefficient n of brain concentration response curve", "value": "−2.17"},
      {"measurement": "Hill coefficient n of dose response curve", "value": "−3.09"},
      {"measurement": "Hill coefficient n of plasma concentration response curve", "value": "−1.95"}
    ]}
  ]
}
